Results: the supplement of paper PMC10849652
The list shows a part of the results.

Chains of the proteins cited; added tags and fusions are not shown. Lines headed by an entry give the natural chain unless they say otherwise; changes in a name come on top.
UniProt O15243: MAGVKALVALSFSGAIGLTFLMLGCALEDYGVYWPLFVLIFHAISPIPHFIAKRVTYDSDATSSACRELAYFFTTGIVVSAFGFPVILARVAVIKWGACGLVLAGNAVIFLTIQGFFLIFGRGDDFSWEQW
UniProt P80188: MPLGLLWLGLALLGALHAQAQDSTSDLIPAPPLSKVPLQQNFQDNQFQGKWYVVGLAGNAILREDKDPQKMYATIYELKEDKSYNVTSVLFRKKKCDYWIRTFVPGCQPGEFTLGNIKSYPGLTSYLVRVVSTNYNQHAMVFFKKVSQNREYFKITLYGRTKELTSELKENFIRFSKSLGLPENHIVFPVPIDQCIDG

How the values were obtained:
Assay in all cases: log2 fold change, soluble protein after heating vs DMSO (PISA); higher = thermal stabilisation; K562 lysate, 10 uM; active = over 0.2 and 3.5 SD of the protein, either way, in both replicates (recomputed)
erlotinib = compound: C#Cc1cccc(Nc2ncnc3cc(OCCOC)c(OCCOC)cc23)c1 [erlotinib]
Procedure, shortened: (§1)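 Following dounce homogenisation of K562 pellets in PBS pH 7.4 with 1 mM MgCl2, crude extract at 1 mg/mL protein was incubated for 30 min with 10 μM compound. Aliquots were then heated for 3 min over 48°C-58°C and pooled, NP-40 was added to 0.5% at 4°C, and soluble protein was recovered as the supernatant at 21,000xg for 90 min. Channel-sum-equalised TMTpro 16plex LC-MS/MS quantified this protein. Each value, from duplicates, is a log-two fold change in thermal stability relative to solvent controls.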

[1] = compound: C1=CC(=CC=C1C2=NC3=C(N2)C=C(C=C3)C(=O)N)OC4=CC=C(C=C4)Cl
Procedure, shortened: as §1

[2] = compound: C1=CC2=NC=CN=C2C=C1/C=C/3\C(=O)NC(=O)S3
Procedure, shortened: as §1

[3] = compound: C1=CC=C(C=C1)C2=NC(=C(N2)C3=CC=NC=C3)C4=CC(=C(C=C4)Cl)O
Procedure, shortened: as §1

[4] = compound: C1CCN(C1)C(=O)NC2=CC=CC(=C2)NC3=NC=C(C(=N3)NCCC4=CN=CN4)Br
Procedure, shortened: as §1

[5] = compound: C1CN(CCC1(CC2=CC=C(C=C2)Cl)N)C3=NC=NC4=C3C=CN4
Procedure, shortened: as §1

IRAK-1-4 Inhibitor I = compound: C1COCCN1CCN2C3=CC=CC=C3N=C2NC(=O)C4=CC(=CC=C4)[N+](=O)[O-] [IRAK-1-4 Inhibitor I]
Procedure, shortened: as §1

ibrutinib = compound: C=CC(=O)N1CCC[C@@H](n2nc(-c3ccc(Oc4ccccc4)cc3)c3c(N)ncnc32)C1 [ibrutinib]
Procedure, shortened: as §1

[6] = compound: CC(=O)c1cnc2ccc(-c3cc(Cl)c(O)c(Cl)c3)nc2c1N[C@H]1CC[C@H](CN(C)C)CC1
Procedure, shortened: as §1

ralimetinib = compound: CC(C)(C)Cn1c(N)nc2ccc(-c3[nH]c(C(C)(C)C)nc3-c3ccc(F)cc3)nc21 [ralimetinib]
Procedure, shortened: as §1

[7] = compound: CC(C)(O)CC(=O)NCCn1ccc2ncnc(Nc3ccc(Oc4cccc(C(F)(F)F)c4)c(Cl)c3)c21
Procedure, shortened: as §1

[8] = compound: CC(C)C1=C2N=C(C=C(N2N=C1)NCC3=CC=CC=C3)NCCCCCCN
Procedure, shortened: as §1

[9] = compound: CC1=C(C=C(C=C1)NC(=O)C2=CC(=CC=C2)C(C)(C)C#N)NC3=CC4=C(C=C3)N=CN(C4=O)C
Procedure, shortened: as §1

[10] = compound: CC1=C(C=C(C=C1)NC(=O)C2=CC(=CC=C2)N(C)C)NC(=O)C3=CC=C(C=C3)O
Procedure, shortened: as §1

[11] = compound: CC1=CC=C(C=C1)SC2=C3C=C(SC3=CN=C2)C(=O)N
Procedure, shortened: as §1

[12] = compound: C/C(=N\NC(=O)C1=CC(=CC=C1)S(=O)(=O)N2CCOCC2)/C3=C(C=CC(=C3)Cl)O
Procedure, shortened: as §1

[13] = compound: C1=CC2=C(C=CC(=C2)/C=C\3/C(=O)NC(=NCC4=CC=CS4)S3)N=C1
Procedure, shortened: as §1

[14] = compound: C1=CC=C2C(=C1)C3=NNC4=CC=CC(=C43)C2=O
Procedure, shortened: as §1

[15] = compound: CC1=C(C(CC(=O)N1)C2=CC=C(C=C2)C(F)(F)F)C(=O)NC3=C(C=C4C(=C3)C=NN4)F
Procedure, shortened: as §1

[16] = compound: CC1=C(C2=C(C=C1)C(=O)C3=CC=CC=C3N2CCCN)C
Procedure, shortened: as §1

Measured: log2 fold change

LEPROT (UniProt O15243)
inactive: erlotinib 0.176 | [1] -0.116 | [2] -0.02 | [3] -0.064 | [4] 0.122 | [5] 0.045 | IRAK-1-4 Inhibitor I -0.036 | ibrutinib 0.005 | [6] -0.273 | ralimetinib -0.034 | [7] 0.054 | [8] 0.267 | [9] 0.181 | [10] 0.016 | [11] 0

LRRC8C (UniProt E9PHY6)
inactive: erlotinib -0.099 | [12] -0.025 | [1] -0.133 | [13] 0.032 | [14] -0.376 | [8] 0.011 | [15] -0.063

LCN2 (UniProt P80188)
inactive: erlotinib -0.048 | [12] 1.2 | [1] -0.262 | [13] -0.001 | [14] -0.501 | [6] -0.354 | [8] 1.16 | [15] 1.72 | [11] -0.026

LRBA, A0A494BZW2
inactive: erlotinib -0.096 | [12] -0.017 | [1] 0.13 | [13] -0.032 | [2] -0.061 | [3] -0.018 | [14] 0.044 | [4] 0.002 | [5] 0.057 | IRAK-1-4 Inhibitor I -0.031 | ibrutinib -0.002 | [6] 0.054 | ralimetinib 0.014 | [7] -0.06 | [8] 0.307 | [15] 0.087 | [16] -0.061 | [9] 0.281 | [10] -0.025 | [11] -0.044
